No constants are given. Whether binding was seen depends on the method and setting. For some of these results: In cells and extracts the contact can be indirect. Some binding calls cover weakened binding; strength is not graded here. For some of these results: Where a sequence is shown, tags or fusion partners need not be part of it.
Experiments:
[1] = target: T1, MBP-FANCC-FANCE-FANCF complex (UniProt Q00597); assay: pull-down; amylose copurification; MBP-FANCC-E-F alone or with FANCM:FAAP24; both purified
T1 sequence 1: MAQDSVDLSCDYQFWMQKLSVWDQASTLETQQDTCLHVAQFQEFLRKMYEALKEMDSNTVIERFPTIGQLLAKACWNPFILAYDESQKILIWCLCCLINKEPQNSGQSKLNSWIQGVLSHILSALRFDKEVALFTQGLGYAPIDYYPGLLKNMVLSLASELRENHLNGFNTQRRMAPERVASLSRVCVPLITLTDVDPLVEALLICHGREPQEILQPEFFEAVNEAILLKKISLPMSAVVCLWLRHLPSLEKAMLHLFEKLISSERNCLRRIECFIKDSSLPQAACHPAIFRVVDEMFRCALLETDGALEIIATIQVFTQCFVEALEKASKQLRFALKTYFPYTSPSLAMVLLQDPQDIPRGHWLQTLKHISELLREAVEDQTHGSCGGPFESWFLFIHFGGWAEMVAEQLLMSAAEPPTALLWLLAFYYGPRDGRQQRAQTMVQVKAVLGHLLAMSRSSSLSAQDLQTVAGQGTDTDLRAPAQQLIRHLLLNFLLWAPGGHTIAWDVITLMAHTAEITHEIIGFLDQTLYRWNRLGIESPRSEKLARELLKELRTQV
T1 sequence 2: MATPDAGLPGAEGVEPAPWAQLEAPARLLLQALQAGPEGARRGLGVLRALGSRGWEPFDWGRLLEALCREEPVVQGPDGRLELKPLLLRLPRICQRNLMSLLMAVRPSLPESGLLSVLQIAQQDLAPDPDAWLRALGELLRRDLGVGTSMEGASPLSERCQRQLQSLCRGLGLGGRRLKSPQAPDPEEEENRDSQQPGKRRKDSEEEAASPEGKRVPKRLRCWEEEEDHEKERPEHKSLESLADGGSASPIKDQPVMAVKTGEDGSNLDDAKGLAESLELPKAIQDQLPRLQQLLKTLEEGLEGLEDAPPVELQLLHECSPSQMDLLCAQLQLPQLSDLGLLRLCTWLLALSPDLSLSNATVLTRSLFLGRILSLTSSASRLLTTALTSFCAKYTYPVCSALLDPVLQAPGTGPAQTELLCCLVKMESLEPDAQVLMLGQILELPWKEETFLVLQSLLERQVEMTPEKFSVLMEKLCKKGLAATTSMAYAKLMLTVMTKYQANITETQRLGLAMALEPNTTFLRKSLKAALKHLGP
T1 sequence 3: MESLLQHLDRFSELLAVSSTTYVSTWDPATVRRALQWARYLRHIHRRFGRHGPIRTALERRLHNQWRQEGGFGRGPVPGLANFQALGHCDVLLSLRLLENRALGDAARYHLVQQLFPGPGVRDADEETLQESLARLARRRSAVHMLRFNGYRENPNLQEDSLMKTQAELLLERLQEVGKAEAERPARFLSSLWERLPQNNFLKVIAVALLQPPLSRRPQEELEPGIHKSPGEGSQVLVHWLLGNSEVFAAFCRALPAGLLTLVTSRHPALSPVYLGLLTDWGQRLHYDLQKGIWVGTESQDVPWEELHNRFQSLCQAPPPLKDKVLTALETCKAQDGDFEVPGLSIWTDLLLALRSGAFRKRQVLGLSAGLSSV

Protein sequences, listed by entry. Tags and fused reporters are not part of them.
UniProt Q8N2Z9: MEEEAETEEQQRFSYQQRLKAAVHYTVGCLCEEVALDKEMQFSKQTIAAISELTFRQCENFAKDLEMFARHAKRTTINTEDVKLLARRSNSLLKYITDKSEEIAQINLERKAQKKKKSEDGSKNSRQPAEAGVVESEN

[2] = target: FANCM (full-length, as purified in the FANCM anchor complex FANCMc) (human) (UniProt Q8IYD8); assay: co-purification; FANCM complexes purified as in Hodson et al, 2022; subunits shown by Coomassie blue staining and Western blotting
[3] = target: T2, FANCM-CTD (FANCM 1799-2048) (human) (UniProt Q8IYD8); assay: dynamic light scattering; Zetasizer Nano-S; protein >0.5 mg/ml, 0.22 µm filtered; both purified
T2 sequence: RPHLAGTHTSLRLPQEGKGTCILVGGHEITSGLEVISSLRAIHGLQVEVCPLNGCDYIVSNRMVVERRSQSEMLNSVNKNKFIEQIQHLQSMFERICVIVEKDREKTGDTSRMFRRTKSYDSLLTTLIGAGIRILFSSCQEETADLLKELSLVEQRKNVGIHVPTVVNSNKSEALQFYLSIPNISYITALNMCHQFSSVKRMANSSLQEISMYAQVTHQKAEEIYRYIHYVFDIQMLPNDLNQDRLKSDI

[4] = target: T2, FANCM-CTD (FANCM 1799-2048) (human); assay: SEC; purified FANCM-CTD:FAAP24; peak at the size of a heterodimer; both purified
[5] = target: T2, FANCM-CTD (FANCM 1799-2048) (human); assay: crystal structure; FANCM-CTD:FAAP24 mixed with splayed arm DNA (3:1 DNA to protein); 25% PEG3350, 0.1 M di-ammonium monohydrogen phosphate; 2.4 Å; both purified
[6] = target: Flag-FANCM-wildtype (expressed in cells) (human) (UniProt Q8IYD8); assay: co-IP; Flag-FANCM precipitated with α-Flag M2 agarose from benzonase-treated lysates (K100 buffer, NaCl raised to 250 mM); Western blots of FANCE and FANCA quantified, n = 3
[7] = target: T3, FANCM-CTD:FAAP24 heterodimer (human) (UniProt Q8IYD8+Q9BTP7); assay: dynamic light scattering; Zetasizer Nano-S; protein >0.5 mg/ml, 0.22 µm filtered; both purified
[8] = target: T3, FANCM-CTD:FAAP24 heterodimer (human); assay: SEC; purified FANCM-CTD:FAAP24; peak at the size of a heterodimer; both purified

## FANCM:FAAP24 complex (full-length FANCM with FAAP24, without MHF1/MHF2) (from UniProt Q8IYD8 1-2048; Q9BTP7 1-215)
[1]
  binding: binds

## MHF1 (subunit of the purified FANCM anchor complex) (from UniProt Q8N2Z9 1-138)
[2]
  binding: binds

B1: FAAP24 (subunit of the purified FANCM anchor complex) (protein, UniProt Q9BTP7 1-215)
chain: MEKNPPDDTGPVHVPLGHIVANEKWRGSQLAQEMQGKIKLIFEDGLTPDFYLSNRCCILYVTEADLVAGNGYRKRLVRVRNSNNLKGIVVVEKTRMSEQYFPALQKFTVLDLGMVLLPVASQMEASCLVIQLVQEQTKEPSKNPLLGKKRALLLSEPSLLRTVQQIPGVGKVKAPLLLQKFPSIQQLSNASIGELEQVVGQAVAQQIHAFFTQPR
[2]
  binding: binds

B2: HIS-FAAP24 (co-expressed with FANCM-CTD) (protein, UniProt Q9BTP7 1-215)
chain: MEKNPPDDTGPVHVPLGHIVANEKWRGSQLAQEMQGKIKLIFEDGLTPDFYLSNRCCILYVTEADLVAGNGYRKRLVRVRNSNNLKGIVVVEKTRMSEQYFPALQKFTVLDLGMVLLPVASQMEASCLVIQLVQEQTKEPSKNPLLGKKRALLLSEPSLLRTVQQIPGVGKVKAPLLLQKFPSIQQLSNASIGELEQVVGQAVAQQIHAFFTQPR
[3]
  binding: binds
[4]
  binding: binds
[5]
  binding: binds

B3: FANCA (FA core complex component, in cells) (protein, UniProt O15360 1-1455)
chain: MSDSWVPNSASGQDPGGRRRAWAELLAGRVKREKYNPERAQKLKESAVRLLRSHQDLNALLLEVEGPLCKKLSLSKVIDCDSSEAYANHSSSFIGSALQDQASRLGVPVGILSAGMVASSVGQICTAPAETSHPVLLTVEQRKKLSSLLEFAQYLLAHSMFSRLSFCQELWKIQSSLLLEAVWHLHVQGIVSLQELLESHPDMHAVGSWLFRNLCCLCEQMEASCQHADVARAMLSDFVQMFVLRGFQKNSDLRRTVEPEKMPQVTVDVLQRMLIFALDALAAGVQEESSTHKIVRCWFGVFSGHTLGSVISTDPLKRFFSHTLTQILTHSPVLKASDAVQMQREWSFARTHPLLTSLYRRLFVMLSAEELVGHLQEVLETQEVHWQRVLSFVSALVVCFPEAQQLLEDWVARLMAQAFESCQLDSMVTAFLVVRQAALEGPSAFLSYADWFKASFGSTRGYHGCSKKALVFLFTFLSELVPFESPRYLQVHILHPPLVPGKYRSLLTDYISLAKTRLADLKVSIENMGLYEDLSSAGDITEPHSQALQDVEKAIMVFEHTGNIPVTVMEASIFRRPYYVSHFLPALLTPRVLPKVPDSRVAFIESLKRADKIPPSLYSTYCQACSAAEEKPEDAALGVRAEPNSAEEPLGQLTAALGELRASMTDPSQRDVISAQVAVISERLRAVLGHNEDDSSVEISKIQLSINTPRLEPREHMAVDLLLTSFCQNLMAASSVAPPERQGPWAALFVRTMCGRVLPAVLTRLCQLLRHQGPSLSAPHVLGLAALAVHLGESRSALPEVDVGPPAPGAGLPVPALFDSLLTCRTRDSLFFCLKFCTAAISYSLCKFSSQSRDTLCSCLSPGLIKKFQFLMFRLFSEARQPLSEEDVASLSWRPLHLPSADWQRAALSLWTHRTFREVLKEEDVHLTYQDWLHLELEIQPEADALSDTERQDFHQWAIHEHFLPESSASGGCDGDLQAACTILVNALMDFHQSSRSYDHSENSDLVFGGRTGNEDIISRLQEMVADLELQQDLIVPLGHTPSQEHFLFEIFRRRLQALTSGWSVAASLQRQRELLMYKRILLRLPSSVLCGSSFQAEQPITARCEQFFHLVNSEMRNFCSHGGALTQDITAHFFRGLLNACLRSRDPSLMVDFILAKCQTKCPLILTSALVWWPSLEPVLLCRWRRHCQSPLPRELQKLQEGRQFASDFLSPEAASPAPNPDWLSAAALHFAIQQVREENIRKQLKKLDCEREELLVFLFFFSLMGLLSSHLTSNSTTDLPKAFHVCAAILECLEKRKISWLALFQLTESDLRLGRLLLRVAPDQHTRLLPFAFYSLLSYFHEDAAIREEAFLHVAVDMYLKLVQLFVAGDTSTVSPPAGRSLELKGQGNPVELITKARLFLLQLIPRCPKKSFSHVAELLADRGDCDPEVSAALQSRQQAAPDADLSQEPHLF
[6]
  binding: binds

B4: FANCE (FA core complex component, in cells) (protein, UniProt Q9HB96 1-536)
chain: MATPDAGLPGAEGVEPAPWAQLEAPARLLLQALQAGPEGARRGLGVLRALGSRGWEPFDWGRLLEALCREEPVVQGPDGRLELKPLLLRLPRICQRNLMSLLMAVRPSLPESGLLSVLQIAQQDLAPDPDAWLRALGELLRRDLGVGTSMEGASPLSERCQRQLQSLCRGLGLGGRRLKSPQAPDPEEEENRDSQQPGKRRKDSEEEAASPEGKRVPKRLRCWEEEEDHEKERPEHKSLESLADGGSASPIKDQPVMAVKTGEDGSNLDDAKGLAESLELPKAIQDQLPRLQQLLKTLEEGLEGLEDAPPVELQLLHECSPSQMDLLCAQLQLPQLSDLGLLRLCTWLLALSPDLSLSNATVLTRSLFLGRILSLTSSASRLLTTALTSFCAKYTYPVCSALLDPVLQAPGTGPAQTELLCCLVKMESLEPDAQVLMLGQILELPWKEETFLVLQSLLERQVEMTPEKFSVLMEKLCKKGLAATTSMAYAKLMLTVMTKYQANITETQRLGLAMALEPNTTFLRKSLKAALKHLGP
[6]
  binding: binds

B5: FANCM-CTD:FAAP24 heterodimer (complex, UniProt Q8IYD8 1799-2048; Q9BTP7 1-215)
chain 1: RPHLAGTHTSLRLPQEGKGTCILVGGHEITSGLEVISSLRAIHGLQVEVCPLNGCDYIVSNRMVVERRSQSEMLNSVNKNKFIEQIQHLQSMFERICVIVEKDREKTGDTSRMFRRTKSYDSLLTTLIGAGIRILFSSCQEETADLLKELSLVEQRKNVGIHVPTVVNSNKSEALQFYLSIPNISYITALNMCHQFSSVKRMANSSLQEISMYAQVTHQKAEEIYRYIHYVFDIQMLPNDLNQDRLKSDI
chain 2: MEKNPPDDTGPVHVPLGHIVANEKWRGSQLAQEMQGKIKLIFEDGLTPDFYLSNRCCILYVTEADLVAGNGYRKRLVRVRNSNNLKGIVVVEKTRMSEQYFPALQKFTVLDLGMVLLPVASQMEASCLVIQLVQEQTKEPSKNPLLGKKRALLLSEPSLLRTVQQIPGVGKVKAPLLLQKFPSIQQLSNASIGELEQVVGQAVAQQIHAFFTQPR
[7]
  binding: no binding
[8]
  binding: no binding
